# Assay results: PubChem BioAssay AID540256 (National Center for Advancing Translational Sciences (NCATS), 2011)
# Among all 300,000 compounds or so, about 3,700 (1.2%) were called active. Inconclusive results, whose numbers are uncertain, are shown with a selection of clear calls. Calls come from the whole dose curve; tested in HEK293 cells. Where the call is inconclusive, the potency comes from a doubtful curve fit.
# Test: qHTS for Inhibitors of binding or entry into cells for Lassa Virus; note: nearly all actives have a fitted effect of over 50% in size
# Settings: Lassa virus pseudotype entry inhibition, cell reporter; activity change, negative = inhibition: at 37.9 µM (top of the series) unless noted
# % is set by controls: 0 for no effect and ±100 for the full control effect; potency is the fitted concentration of half-maximal effect.
Compound,Potency,"activity change, negative = inhibition"
Cc1ccccc1CS(=O)(=O)Cc1ccc(C(=O)NCc2ccc(F)cc2)o1,"inconclusive: 5.62 µM [inhibitor, full curve]",–
O=C(Nc1nc2c(s1)CCCC2)c1ccc(Br)s1,"inconclusive: 18.3 µM [inhibitor, single point]",–
O=C(C(=O)N1CCOCC1)c1cn(CC(=O)N2CCc3ccccc3C2)c2ccccc12,"inconclusive: 5.62 µM [inhibitor, single point]",–
COc1ccc(C)cc1N(CC(=O)N1CCOCC1)S(C)(=O)=O,"inconclusive: 0.631 µM [inhibitor, single point]",–
CN1C(=O)NC(=O)/C(=C\C=C\c2ccccc2[N+](=O)[O-])C1=O,"inconclusive: 22.4 µM [inhibitor, single point]",–
O=C(COc1cccc(C(F)(F)F)c1)N1CCN(c2ccc(O)cc2)CC1,"inconclusive: 35.5 µM [inhibitor, partial curve, poor fit]",–
COc1ccc(O)c(-c2[nH]ncc2C(=O)c2ccccc2C)c1,"inconclusive: 0.708 µM [activator, partial curve, poor fit]",–
COc1ccc([N+](=O)[O-])cc1NC(=O)COC(=O)c1ccccc1C(=O)c1ccccc1,"inconclusive: 0.891 µM [inhibitor, full curve, poor fit]",–
CC(C)Oc1ccc(C(=O)Nc2ccc(Cl)c(S(=O)(=O)Nc3ccc(Cl)cc3)c2)cc1,active: 11.2 µM,–
Cc1csc(=O)n1CCC(=O)N(C)Cc1c(F)cccc1Cl,"inconclusive: 20 µM [activator, partial curve, poor fit]",–
COc1cc(/C=C/[N+](=O)[O-])ccc1O,–,inactive: -20.1%
CCOC(=O)c1ccc(Nc2ncnc3nc[nH]c23)cc1,–,inactive: -20.1%
CC1CCC(C(C)C)C(OC(=O)Cn2c(-c3ccc(F)cc3)[n+](C)c3ccccc32)C1 (configuration not stated),"inconclusive: 12.6 µM [inhibitor, partial curve, poor fit]",–
COc1ccc(NS(=O)(=O)c2ccc3[nH]c4c(c3c2)CCCCCC4)cc1,"inconclusive: 10 µM [inhibitor, partial curve, poor fit]",–
CCOC(=O)c1ccc(NC(=O)CCC(CC)C(=O)O)cc1 (configuration not stated),"inconclusive: 11.2 µM [activator, partial curve, poor fit]",–
O=C1Nc2ccccc2C1(c1ccccc1)c1ccccc1,"inconclusive: 0.73 µM [activator, partial curve, poor fit]",–
Cc1cccc(CS(=O)(=O)c2ncc(Cl)c(C(=O)NCc3ccccc3)n2)c1,"inconclusive: 12.6 µM [inhibitor, partial curve, poor fit]",–
COc1ccc(-n2cc(-c3ccc(C)cc3)[n+]3c2SCC3)cc1,"inconclusive: 20 µM [inhibitor, single point]",–
O=C(c1ccc(S(=O)(=O)NCc2ccco2)cc1)N1CCCC(C(F)(F)F)C1 (configuration not stated),"inconclusive: 1.26 µM [activator, single point]",–
CC1Sc2ccc(S(=O)(=O)N3CCC(C(=O)NCCc4ccccc4)CC3)cc2NC1=O (configuration not stated),"inconclusive: 6.31 µM [inhibitor, partial curve, poor fit]",–
O=C(Nc1ccccc1)C1=C(N2CCOCC2)/C(=C/c2cccnc2)CC1,–,inactive: 17.5%

Compound,Potency,"activity change, negative = inhibition"
CC1=NC(=O)C(N=Nc2ccccc2C(=O)O)N1c1ccccc1 (configuration not stated),–,inactive: -24.2%
CC1(C)COCN1S(=O)(=O)c1ccc(C(=O)Nc2nnc(-c3ccc(Cl)s3)o2)cc1,"inconclusive: 2.82 µM [inhibitor, full curve, poor fit]",–
N#Cc1nc(Cl)c(Cl)c(NN)c1Cl,"inconclusive: 2.24 µM [activator, full curve, poor fit]",–
CCOC(=O)/C(=C\c1ccc(OC)c(OC)c1)C(=O)c1cccnc1,–,inactive: -29.4%
COc1cc(OC)c(C=NNC(=S)NC23CC4CC(CC(C4)C2)C3)c(OC)c1,"inconclusive: 4.47 µM [inhibitor, full curve, poor fit]",–
CCOC(=O)CNC(=O)c1ccc(Cl)s1,"inconclusive: 17.8 µM [inhibitor, partial curve, poor fit]",–
Oc1ccc(C(c2nnnn2C2CCCCC2)N2CCOCC2)cc1 (configuration not stated),–,inactive: 1.31%
COC(=O)C1=C(C(=O)OC)C(C(=O)OC)C(C(=O)OC)C(C(=O)OC)(C(=O)OC)C(C(=O)OC)=C1C(=O)OC (configuration not stated),"inconclusive: 14.1 µM [inhibitor, single point]",–
COc1ccc(CNC(=O)C2CCN(C(=O)c3ccco3)CC2)cc1,"inconclusive: 22.4 µM [inhibitor, single point]",–
O=C(CNC1CCCCC1)NCC1(c2ccccc2)CCCC1,"inconclusive: 5.01 µM [activator, single point]",–
Cc1ccc(-n2c(=O)c3oc4ccccc4c3n(CC(=O)Nc3ccccc3)c2=O)cc1C,"inconclusive: 11.2 µM [inhibitor, single point]",–
COc1ccc(N2CCN(C(=O)Nc3cccc(C(F)(F)F)c3)CC2)cc1,inactive,–
Cc1ccc(N=N/C(=C\O)C(=O)c2ccc(Cl)cc2)cc1,"inconclusive: 10 µM [inhibitor, partial curve, poor fit]",–
CCc1ccccc1NC(=O)Cc1c(C(=O)O)[nH]c2ccc(Cl)cc12,–,inactive: 0.888% [at 46.1 µM]
CC(Sc1nnnn1C)C(=O)Nc1ccccc1 (configuration not stated),–,inactive: 11.9%
Cc1cc(NC(=O)c2sc(Nc3cccc(C(F)(F)F)c3)nc2N)no1,"inconclusive: 25.9 µM [inhibitor, single point]",–
Cc1cccc(NC(=O)CSc2cc(C)c3ccccc3n2)c1,"inconclusive: 2.82 µM [inhibitor, full curve]",–
Cn1c(=O)c2c(nc(N/N=C/c3cccs3)n2C)n(C)c1=O,–,inactive: 4.61% [at 46.1 µM]
CCN(CC)S(=O)(=O)c1ccc(/C=C/C(=O)NC2CCCCC2)cc1,"inconclusive: 3.98 µM [inhibitor, full curve]",–
O=c1c2c3c(sc2nc2n1CCCCC2)CCC3,"inconclusive: 35.5 µM [activator, single point]",–
CC(C)CNc1cc(N2CCCC2)ccc1[N+](=O)[O-],–,inactive: -3.01%

# Among those listed so far, these contain an aryl thioether with sulfur outside any ring:
Compound,Potency,"activity change, negative = inhibition"
CC(Sc1nnnn1C)C(=O)Nc1ccccc1 (configuration not stated),–,inactive: 11.9%
Cc1cccc(NC(=O)CSc2cc(C)c3ccccc3n2)c1,"inconclusive: 2.82 µM [inhibitor, full curve]",–
